Results are given in words; binding and its absence hold for the method and conditions named. Some binding calls cover weakened binding; strength is not graded here. For part of these data: Tags and fused reporters may be left off the sequences shown.
T1: SEPT2 (human) (UniProt Q15019)
T1 sequence: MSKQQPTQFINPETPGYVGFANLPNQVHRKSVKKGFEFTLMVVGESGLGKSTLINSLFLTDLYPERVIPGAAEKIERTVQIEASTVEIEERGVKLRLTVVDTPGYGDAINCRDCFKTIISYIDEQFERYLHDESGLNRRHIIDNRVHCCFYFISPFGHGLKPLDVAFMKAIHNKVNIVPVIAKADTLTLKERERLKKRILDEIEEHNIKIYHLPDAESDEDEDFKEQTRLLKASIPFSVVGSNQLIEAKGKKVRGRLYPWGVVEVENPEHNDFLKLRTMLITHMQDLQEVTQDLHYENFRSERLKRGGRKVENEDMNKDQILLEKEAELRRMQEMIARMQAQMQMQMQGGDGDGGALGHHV

T2: SEPT7 (human) (UniProt Q16181)
T2 sequence: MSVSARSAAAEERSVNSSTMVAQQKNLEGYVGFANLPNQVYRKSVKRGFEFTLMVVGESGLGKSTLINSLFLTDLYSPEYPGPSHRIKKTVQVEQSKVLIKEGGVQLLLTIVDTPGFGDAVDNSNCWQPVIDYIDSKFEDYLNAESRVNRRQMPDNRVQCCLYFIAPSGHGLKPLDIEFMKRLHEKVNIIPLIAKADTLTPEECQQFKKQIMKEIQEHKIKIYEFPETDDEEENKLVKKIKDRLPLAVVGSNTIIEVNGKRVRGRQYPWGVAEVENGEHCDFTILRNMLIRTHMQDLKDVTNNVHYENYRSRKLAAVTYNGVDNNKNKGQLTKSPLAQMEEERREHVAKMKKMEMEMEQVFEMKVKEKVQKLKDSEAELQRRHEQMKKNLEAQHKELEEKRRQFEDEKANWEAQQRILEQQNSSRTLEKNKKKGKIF

T3: SEPT2 (human), Q15019
T3 chain: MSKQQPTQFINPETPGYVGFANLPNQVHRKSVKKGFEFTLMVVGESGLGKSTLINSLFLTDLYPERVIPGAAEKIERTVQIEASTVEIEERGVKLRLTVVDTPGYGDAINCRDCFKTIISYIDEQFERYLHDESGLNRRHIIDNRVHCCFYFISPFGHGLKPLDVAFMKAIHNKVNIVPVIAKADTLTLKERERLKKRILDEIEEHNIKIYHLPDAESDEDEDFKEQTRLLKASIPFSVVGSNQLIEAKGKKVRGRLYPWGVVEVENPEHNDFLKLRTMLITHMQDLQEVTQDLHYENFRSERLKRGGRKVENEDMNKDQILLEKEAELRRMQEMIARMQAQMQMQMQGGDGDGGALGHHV


Key:
Experiment in all cases: co-purification; SEPT2, msGFP-SEPT6 (WT or ΔAH) and SEPT7 produced in E. coli BL21-DE3, complex purified as in ref. 51, Coomassie-stained gel; the bait is not stated
[1] = biological target: T1, SEPT2 (human)
[2] = biological target: T2, SEPT7 (human)
[3] = biological target: T3, SEPT2 (human), Q15019; conditions: remark: other sources report otherwise

Binder | binding [1] | binding [2] | binding [3]
msGFP-SEPT6 (protein, UniProt Q14141 1-434) MAATDIARQVGEGCRTVPLAGHVGFDSLPDQLVNKSVSQGFCFNILCVGETGLGKSTLMDTLFNTKFEGEPATHTQPGVQLQSNTYDLQESNVRLKLTIVSTVGFGDQINKEDSYKPIVEFIDAQFEAYLQEELKIRRVLHTYHDSRIHVCLYFIAPTGHSLKSLDLVTMKKLDSKVNIIPIIAKADAISKSELTKFKIKITSELVSNGVQIYQFPTDDESVAEINGTMNAHLPFAVIGSTEELKIGNKMMRARQYPWGTVQVENEAHCDFVKLREMLIRVNMEDLREQTHTRHYELYRRCKLEEMGFKDTDPDSKPFSLQETYEAKRNEFLGELQKKEEEMRQMFVQRVKEKEAELKEAEKELHEKFDRLKKLHQDEKKKLEDKKKSLDDEVNAFKQRKTAAELLQSQGSQAGGSQTLKRDKEKKNNPWLCTE | binds | binds | –
SEPT7, Q16181 1-437 (protein) MSVSARSAAAEERSVNSSTMVAQQKNLEGYVGFANLPNQVYRKSVKRGFEFTLMVVGESGLGKSTLINSLFLTDLYSPEYPGPSHRIKKTVQVEQSKVLIKEGGVQLLLTIVDTPGFGDAVDNSNCWQPVIDYIDSKFEDYLNAESRVNRRQMPDNRVQCCLYFIAPSGHGLKPLDIEFMKRLHEKVNIIPLIAKADTLTPEECQQFKKQIMKEIQEHKIKIYEFPETDDEEENKLVKKIKDRLPLAVVGSNTIIEVNGKRVRGRQYPWGVAEVENGEHCDFTILRNMLIRTHMQDLKDVTNNVHYENYRSRKLAAVTYNGVDNNKNKGQLTKSPLAQMEEERREHVAKMKKMEMEMEQVFEMKVKEKVQKLKDSEAELQRRHEQMKKNLEAQHKELEEKRRQFEDEKANWEAQQRILEQQNSSRTLEKNKKKGKIF | – | – | binds
